Reference: article PMC6548132, “Engineered SUMO/protease system identifies Pdr6 as a bidirectional nuclear transport receptor” (The Journal of Cell Biology, 2019)
Where two headings read alike, the source gives them in different places. Results are given in words; binding and its absence hold for the method and conditions named. In cells and extracts the contact can be indirect. Sequences can lack the tags named with a protein.

Chains of the proteins cited; added tags and fusions are not shown. Lines headed by an entry give the natural chain unless they say otherwise; changes in a name come on top.
UniProt Q06142: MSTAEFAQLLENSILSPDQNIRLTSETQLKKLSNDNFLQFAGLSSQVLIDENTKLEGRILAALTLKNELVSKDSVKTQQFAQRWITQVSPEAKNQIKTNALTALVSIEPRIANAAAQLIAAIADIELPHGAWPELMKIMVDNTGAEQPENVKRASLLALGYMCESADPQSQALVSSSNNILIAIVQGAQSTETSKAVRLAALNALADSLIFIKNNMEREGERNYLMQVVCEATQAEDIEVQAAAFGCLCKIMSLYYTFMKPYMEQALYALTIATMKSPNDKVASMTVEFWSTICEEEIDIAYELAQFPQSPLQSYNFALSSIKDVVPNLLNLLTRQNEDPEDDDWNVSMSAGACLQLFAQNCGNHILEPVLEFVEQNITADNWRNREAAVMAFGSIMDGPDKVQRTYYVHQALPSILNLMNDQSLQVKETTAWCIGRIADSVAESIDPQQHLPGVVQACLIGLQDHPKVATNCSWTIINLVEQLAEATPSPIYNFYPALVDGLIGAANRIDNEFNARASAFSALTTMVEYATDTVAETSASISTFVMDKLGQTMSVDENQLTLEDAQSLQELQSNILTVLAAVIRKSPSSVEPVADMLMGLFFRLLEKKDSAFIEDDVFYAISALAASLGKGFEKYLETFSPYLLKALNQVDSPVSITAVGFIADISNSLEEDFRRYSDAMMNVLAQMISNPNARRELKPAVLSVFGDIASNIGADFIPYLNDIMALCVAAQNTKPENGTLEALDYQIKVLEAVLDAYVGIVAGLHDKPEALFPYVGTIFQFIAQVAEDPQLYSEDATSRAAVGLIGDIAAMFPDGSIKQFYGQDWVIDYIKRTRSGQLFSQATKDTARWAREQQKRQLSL
UniProt Q02821: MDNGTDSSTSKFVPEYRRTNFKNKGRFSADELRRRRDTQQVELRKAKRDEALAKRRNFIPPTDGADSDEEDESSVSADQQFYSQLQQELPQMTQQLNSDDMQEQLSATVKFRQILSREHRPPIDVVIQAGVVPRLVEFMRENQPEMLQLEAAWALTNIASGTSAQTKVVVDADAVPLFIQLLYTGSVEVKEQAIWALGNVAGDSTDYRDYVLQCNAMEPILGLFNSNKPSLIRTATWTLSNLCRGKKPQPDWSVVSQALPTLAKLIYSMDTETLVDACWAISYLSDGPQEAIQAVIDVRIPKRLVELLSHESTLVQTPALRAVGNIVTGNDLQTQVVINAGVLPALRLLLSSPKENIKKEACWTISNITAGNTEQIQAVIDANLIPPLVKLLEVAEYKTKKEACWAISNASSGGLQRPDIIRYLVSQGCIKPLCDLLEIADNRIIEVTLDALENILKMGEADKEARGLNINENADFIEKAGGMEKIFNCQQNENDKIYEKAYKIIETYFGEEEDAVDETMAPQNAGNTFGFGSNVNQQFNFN
UniProt P53067: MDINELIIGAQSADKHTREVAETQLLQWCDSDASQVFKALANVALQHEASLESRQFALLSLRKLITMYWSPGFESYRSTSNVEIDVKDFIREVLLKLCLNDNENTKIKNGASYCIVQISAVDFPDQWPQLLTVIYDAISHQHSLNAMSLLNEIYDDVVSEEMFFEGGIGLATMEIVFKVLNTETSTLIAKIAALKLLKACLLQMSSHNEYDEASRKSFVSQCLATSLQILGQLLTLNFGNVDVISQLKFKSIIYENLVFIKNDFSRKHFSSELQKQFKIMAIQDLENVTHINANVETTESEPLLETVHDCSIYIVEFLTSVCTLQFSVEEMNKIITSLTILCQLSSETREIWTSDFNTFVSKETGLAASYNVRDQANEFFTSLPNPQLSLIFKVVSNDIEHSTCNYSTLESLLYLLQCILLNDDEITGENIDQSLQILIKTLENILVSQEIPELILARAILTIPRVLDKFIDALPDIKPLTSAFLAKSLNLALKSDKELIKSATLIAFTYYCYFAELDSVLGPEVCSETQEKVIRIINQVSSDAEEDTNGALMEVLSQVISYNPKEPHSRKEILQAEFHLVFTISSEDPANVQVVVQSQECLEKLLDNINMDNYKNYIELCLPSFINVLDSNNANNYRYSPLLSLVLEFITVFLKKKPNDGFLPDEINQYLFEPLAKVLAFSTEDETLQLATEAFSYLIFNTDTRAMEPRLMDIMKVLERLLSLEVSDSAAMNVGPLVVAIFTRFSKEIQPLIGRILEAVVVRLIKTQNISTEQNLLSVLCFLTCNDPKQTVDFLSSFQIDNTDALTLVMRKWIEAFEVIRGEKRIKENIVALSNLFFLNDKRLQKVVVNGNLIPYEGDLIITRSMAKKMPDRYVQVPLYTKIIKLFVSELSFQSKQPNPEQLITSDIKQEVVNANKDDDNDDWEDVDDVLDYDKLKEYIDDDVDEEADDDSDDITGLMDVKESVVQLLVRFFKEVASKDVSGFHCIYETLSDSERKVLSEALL

Tests used:
[1] = molecular target: T1, H14-ZZ-NEDD8–tagged Ubc9 (yeast (S. cerevisiae)) (UniProt P50623); assay: pull-down; H14-ZZ-NEDD8-Ubc9 added to E. coli lysates each containing 3 µM of a different eGFP-tagged yeast NTR; anti-ZZ/ED affibody matrix, elution by tag cleavage; SDS-PAGE/Coomassie; only the target purified
T1 sequence: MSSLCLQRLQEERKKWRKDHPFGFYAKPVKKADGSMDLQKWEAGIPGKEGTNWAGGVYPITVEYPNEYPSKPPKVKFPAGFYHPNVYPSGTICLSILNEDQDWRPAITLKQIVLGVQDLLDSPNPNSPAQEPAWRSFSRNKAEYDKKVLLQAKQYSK

[2] = molecular target: T1, H14-ZZ-NEDD8–tagged Ubc9 (yeast (S. cerevisiae)); assay: as above; remark: listed apart in the source

## importin β (yeast; eGFP-tagged, E. coli lysate) (from UniProt Q06142 1-861)
[1]
  binding: no binding (tested: 3 µM)

## importin α–β complex (yeast; E. coli lysate) (from UniProt Q02821 1-542; Q06142 1-861)
[1]
  binding: no binding (tested: 3 µM)

## Kap114 (eGFP-tagged, E. coli lysate) (from UniProt P53067 1-1004)
[1]
  binding: no binding (tested: 3 µM)

B1: Smx1 (eGFP-tagged, E. coli lysate) (protein, UniProt Q04175 1-944)
chain: MVQEQAILSCIEQTMVADAKIIKEAEQQLFEFQKQPGFTSFLLNIVSDDNFALNVRLSSAIYLKNKIHRSWDTKREDGIKADEKLSIKERLIETLVKNCENNHIRPILTETINGILVGQEDWDLAPIIKNLLSSGDASYIYPGLLLLFQLCKAHRWDMVGSRDYIDSVIEELFPIVEGIASNIGSQTDYRSNEILYLILKSFKYACLNNLPQYFSQPERIMSWVQLHLYLCSKPLPVEVMELDPADRSLDKRVKVNKWGFGNLNRFLQRYNKITKAITKEFIDYIFNTIVPIILREFFKDIEAWGNNSLWLSDSSLYFLISFLEKCVTIDQLYPLIEPHLQIIFENVIFPCLCANEQSIELLEDDQEEYTRRYFDINREGSTPDAASADFIFLIGSKRPEKLNNILPFINDIFTRFDANSSDINMAFKEEGALRTLSNLFSFIDEPSVLENIFGHFIVPLLSQDKYMFLVARSLETIALYSEEFKDMNILSQLFELTYTNFLNSNVLPVQIEAADAIKCLIVSNPQIHPAVSAHVPGMMEKLLKLSKIFEIDILSEVMEALVERFSDELSPFAKDLASNLVEQFLRIAQALVENPSETYSASDQEQEIQASGLLQTMTTMVMSMNKVPLIESLAPVVKFVVLHAQISFITEAVDLLDALTISSHLLYNQIAPPIWELLHDILDSFQTYAMDYFEAYSIFFETIVMTGFPQDQTYVQPLLEILSAKLESEVDYDIEHVMQILMYFALSMRDIPLFSKAIKVSTNDELGLDSKCIVKLGLANLFAKPIETLQIMENEGFTINFFTNWFNEKFYSVFAIKLQVLVILTLLKMPEVPNSVSPLLNNLTNKLVELTLSLPKAIRNRDAVTEGKSLEGDLTPEEEEEYFIECDDDMKETVLDQINVFQEVHTFFKNLQNEDAGKYEKIINYLDESKRDSLQVILEFVSQH
[2]
  binding: no binding (tested: 3 µM)

B2: Pse1 (eGFP-tagged, E. coli lysate) (protein, UniProt P32337 1-1089)
chain: MSALPEEVNRTLLQIVQAFASPDNQIRSVAEKALSEEWITENNIEYLLTFLAEQAAFSQDTTVAALSAVLFRKLALKAPPSSKLMIMSKNITHIRKEVLAQIRSSLLKGFLSERADSIRHKLSDAIAECVQDDLPAWPELLQALIESLKSGNPNFRESSFRILTTVPYLITAVDINSILPIFQSGFTDASDNVKIAAVTAFVGYFKQLPKSEWSKLGILLPSLLNSLPRFLDDGKDDALASVFESLIELVELAPKLFKDMFDQIIQFTDMVIKNKDLEPPARTTALELLTVFSENAPQMCKSNQNYGQTLVMVTLIMMTEVSIDDDDAAEWIESDDTDDEEEVTYDHARQALDRVALKLGGEYLAAPLFQYLQQMITSTEWRERFAAMMALSSAAEGCADVLIGEIPKILDMVIPLINDPHPRVQYGCCNVLGQISTDFSPFIQRTAHDRILPALISKLTSECTSRVQTHAAAALVNFSEFASKDILEPYLDSLLTNLLVLLQSNKLYVQEQALTTIAFIAEAAKNKFIKYYDTLMPLLLNVLKVNNKDNSVLKGKCMECATLIGFAVGKEKFHEHSQELISILVALQNSDIDEDDALRSYLEQSWSRICRILGDDFVPLLPIVIPPLLITAKATQDVGLIEEEEAANFQQYPDWDVVQVQGKHIAIHTSVLDDKVSAMELLQSYATLLRGQFAVYVKEVMEEIALPSLDFYLHDGVRAAGATLIPILLSCLLAATGTQNEELVLLWHKASSKLIGGLMSEPMPEITQVYHNSLVNGIKVMGDNCLSEDQLAAFTKGVSANLTDTYERMQDRHGDGDEYNENIDEEEDFTDEDLLDEINKSIAAVLKTTNGHYLKNLENIWPMINTFLLDNEPILVIFALVVIGDLIQYGGEQTASMKNAFIPKVTECLISPDARIRQAASYIIGVCAQYAPSTYADVCIPTLDTLVQIVDFPGSKLEENRSSTENASAAIAKILYAYNSNIPNVDTYTANWFKTLPTITDKEAASFNYQFLSQLIENNSPIVCAQSNISAVVDSVIQALNERSLTEREGQTVISSVKKLLGFLPSSDAMAIFNRYPADIMEKVHKWFA
[2]
  binding: no binding (tested: 3 µM)
